Measured values published in patent US10085450B2, “Tetrazolinone compound and use thereof” (SUMITOMO CHEMICAL COMPANY, LIMITED, priority 2013, dated 2018).
Some results were stated once for a whole list of compounds, not compound by compound.

Experiments:
Assay type in all cases: in vivo
[1] = test system: rice blast fungus (Magnaporthe grisea); details: 200 ppm water dilution sprayed on rice (NIHONBARE); contact with infected rice seedling for 6 days
[2] = test system: wheat rust fungus (Puccinia recondita); assay: Test Example 17: wheat rust control, foliar spray before inoculation; details: 200 ppm water dilution sprayed on wheat (SHIROGANE); spores inoculated after 5 days
[3] = test system: wheat rust fungus (Puccinia recondita); assay: Test Example 18: wheat rust control, foliar spray before inoculation; details: 200 ppm water dilution sprayed on wheat (SHIROGANE); spores inoculated after 5 days
[4] = test system: wheat rust fungus (Puccinia recondita); assay: Test Example 7: wheat rust control, foliar spray before inoculation; details: 200 ppm water dilution sprayed on wheat (SHIROGANE); spores inoculated after 5 days
[5] = test system: barley net blotch fungus (Pyrenophora teres); assay: Test Example 1: barley net blotch control, foliar spray before inoculation; details: 500 ppm water dilution sprayed on barley (NISHINOHOSHI) stems and leaves; spores inoculated after 2 days
[6] = test system: kidney bean stem rot fungus (Sclerotinia sclerotiorum); assay: Test Example 14: kidney bean stem rot control, foliar spray; details: 500 ppm water dilution sprayed on kidney bean (NAGAUZURA SAIYTOU); PDA medium with hyphae placed on leaves; four days after inoculation
[7] = test system: barley leaf blotch fungus (Rhynchosporium secalis); assay: Test Example 3: barley leaf blotch control, foliar spray before inoculation; details: 200 ppm sprayed on barley (NISHINOHOSHI) stems and leaves; spores inoculated after 2 days
[8] = test system: wheat leaf blotch fungus (Septoria tritici); assay: Test Example 5: wheat leaf blotch control, foliar spray after inoculation (with surfactant); details: 200 ppm water dilution containing a surfactant sprayed on wheat (APOGEE) 3 days after inoculation
[9] = test system: wheat leaf blotch fungus (Septoria tritici); assay: Test Example 19: wheat leaf blotch control, foliar spray after inoculation; details: 200 ppm water dilution sprayed on wheat (APOGEE) 3 days after inoculation
[10] = test system: kidney bean stem rot fungus (Sclerotinia sclerotiorum); assay: Test Example 15: kidney bean stem rot control, foliar spray; details: 200 ppm water dilution sprayed on kidney bean (NAGAUZURA SAIYTOU); PDA medium with hyphae placed on leaves; four days after inoculation
[11] = test system: wheat leaf blotch fungus (Septoria tritici); assay: Test Example 4: wheat leaf blotch control, foliar spray before inoculation; details: 500 ppm water dilution sprayed on wheat (APOGEE) stems and leaves; spores inoculated after 4 days
[12] = test system: cotton aphid (Aphis gossypii); assay: Test Example 22: cotton aphid control on sprayed cucumber; details: 500 ppm active ingredient, 20 mL sprayed on cucumber with adults and larvae; after 6 days
[13] = test system: wheat rust fungus (Puccinia recondita); assay: Test Example 6: wheat rust control, foliar spray before inoculation; details: 500 ppm water dilution sprayed on wheat (SHIROGANE); spores inoculated after 5 days
[14] = test system: soybean rust fungus (Phakopsora pachyrhizi); assay: Test Example 13: soybean rust control, foliar spray before inoculation; details: 200 ppm water dilution sprayed on soybean (KUROSENGOKU); spores inoculated after 2 days
[15] = test system: cucumber target leaf spot fungus (Corynespora cassiicola); assay: Test Example 10: cucumber target leaf spot control, foliar spray; details: 200 ppm water dilution sprayed on cucumber (SAGAMI HANJIRO); spores inoculated after air-drying

SMILES | lesion areas on the treated plant with respect to the lesion area on the non-treated plant [1] [%] | area of lesion spots on the treated plant relative to that on an untreated plant [3] [%] | area of lesion spots on the treated plant relative to that on an untreated plant [5] [%] | area of lesion spots on the treated plant relative to that on an untreated plant [11] [%] | also measured
Cc1cccc(-n2nnn(C)c2=O)c1CSc1nc(-c2ccc(Cl)cc2)co1 [present compound 23, 1-(2-{[4-(4-chlorophenyl)-1,3-oxazol-2-ylthio]methyl}-3-methylphenyl)-4-methyl-1,4-dihydrotetrazol-5-one] | ≤ 30 | ≤ 30 |  |  | area of lesion spots on the treated plant relative to that on an untreated plant [2]: ≤ 30%; area of lesion spots on the treated plant relative to that on an untreated plant [4]: ≤ 30%
Cc1cccc(-n2nnn(C)c2=O)c1CSc1nc(-c2cccc(Cl)c2)co1 [present compound 24, 1-(2-{[4-(3-chlorophenyl)-1,3-oxazol-2-ylthio]methyl}-3-methylphenyl)-4-methyl-1,4-dihydrotetrazol-5-one] | ≤ 30 |  |  |  | 
Cc1cccc(-n2nnn(C)c2=O)c1COc1cc(-c2ccc(Cl)cc2)nn1C [present compound 4] |  |  | ≤ 30 |  | 
CCn1nc(-c2cccc(Cl)c2)cc1OCc1c(OC)cccc1-n1nnn(C)c1=O [present compound 5] |  |  | ≤ 30 | ≤ 30 | area of lesion spots on the treated plant relative to that on an untreated plant [6]: ≤ 30%; area of lesion spots on the treated plant relative to that on an untreated plant [7]: ≤ 30%; area of lesion spots on the treated plant relative to that on an untreated plant [8]: ≤ 30%; area of lesion spots on the treated plant relative to that on an untreated plant [9]: ≤ 30%; area of lesion spots on the treated plant relative to that on an untreated plant [10]: ≤ 30%; control value [12]: ≥ 90%
COc1ccc(-c2coc(OCc3c(C)cccc3-n3nnn(C)c3=O)n2)cc1 [present compound 18, 1-(2-{[4-(4-methoxyphenyl)-1,3-oxazol-2-yloxy]methyl}-3-methylphenyl)-4-methyl-1,4-dihydrotetrazol-5-one] | ≤ 30 | ≤ 30 |  |  | 
COc1cccc(-n2nnn(C)c2=O)c1COc1cc(-c2ccc(Cl)cc2)nn1C [present compound 3] |  |  | ≤ 30 | ≤ 30 | area of lesion spots on the treated plant relative to that on an untreated plant [7]: ≤ 30%; area of lesion spots on the treated plant relative to that on an untreated plant [10]: ≤ 30%
Cc1cccc(-n2nnn(C)c2=O)c1COc1nc(-c2ccc(Cl)cc2)cn1C [present compound 11] |  |  |  | ≤ 30 | 
Cc1cccc(-n2nnn(C)c2=O)c1COc1nc(-c2ccc(Cl)cc2)co1 [present compound 17, 1-(2-{[4-(4-chlorophenyl)-1,3-oxazol-2-yloxy]methyl}-3-methylphenyl)-4-methyl-1,4-dihydrotetrazol-5-one] | ≤ 30 | ≤ 30 |  |  | 
Cc1cccc(-n2nnn(C)c2=O)c1COc1csc(-c2ccccc2)n1 [present compound 10] |  |  | ≤ 30 | ≤ 30 | 
Cc1cccc(-n2nnn(C)c2=O)c1CSc1nc(-c2ccccc2)co1 [present compound 22, 1-{2-[(4-phenyl-1,3-oxazol-2-ylthio)methyl]-3-methylphenyl}-4-methyl-1,4-dihydrotetrazol-5-one] |  | ≤ 30 |  |  | area of lesion spots on the treated plant relative to that on an untreated plant [2]: ≤ 30%; area of lesion spots on the treated plant relative to that on an untreated plant [4]: ≤ 30%
COc1cccc(-n2nnn(C)c2=O)c1COc1cc(-c2cccc(Cl)c2)nn1C [present compound 2] |  |  | ≤ 30 | ≤ 30 | area of lesion spots on the treated plant relative to that on an untreated plant [6]: ≤ 30%; area of lesion spots on the treated plant relative to that on an untreated plant [13]: ≤ 30%
Cc1cccc(-n2nnn(C)c2=O)c1COc1nc(-c2ccc(C#N)cc2)co1 [present compound 21, 1-(2-{[4-(4-cyanophenyl)-1,3-oxazol-2-yloxy]methyl}-3-methylphenyl)-4-methyl-1,4-dihydrotetrazol-5-one] | ≤ 30 |  |  |  | 
Cc1cccc(-n2nnn(C)c2=O)c1COc1cc(-c2ccc(Cl)cc2)n(C)n1 [present compound 25, 1-(2-{[1-methyl-5-(4-chlorophenyl)-1H-pyrazol-3-yloxy]methyl}-3-methylphenyl)-4-methyl-1,4-dihydrotetrazol-5-one] | ≤ 30 | ≤ 30 |  |  | area of lesion spots on the treated plant relative to that on an untreated plant [2]: ≤ 30%; area of lesion spots on the treated plant relative to that on an untreated plant [4]: ≤ 30%
Cc1cccc(-n2nnn(C)c2=O)c1COc1nnc(-c2ccc(Cl)cc2)s1 [present compound 30, 1-(2-{[5-(4-chlorophenyl)-1,3,4-thiadiazol-2-yloxy]methyl}-3-methylphenyl)-4-methyl-1,4-dihydrotetrazol-5-one] | ≤ 30 | ≤ 30 |  |  | area of lesion spots on the treated plant relative to that on an untreated plant [13]: ≤ 30%
Cc1cccc(-n2nnn(C)c2=O)c1COc1cnn(-c2ccc(Cl)cc2)c1 [present compound 9] |  |  | ≤ 30 |  | area of lesion spots on the treated plant relative to that on an untreated plant [7]: ≤ 30%
Cc1cccc(-n2nnn(C)c2=O)c1COc1c(C)c(-c2ccccc2)nn1C [present compound 8] |  |  | ≤ 30 | ≤ 30 | area of lesion spots on the treated plant relative to that on an untreated plant [6]: ≤ 30%; area of lesion spots on the treated plant relative to that on an untreated plant [7]: ≤ 30%; area of lesion spots on the treated plant relative to that on an untreated plant [8]: ≤ 30%; area of lesion spots on the treated plant relative to that on an untreated plant [13]: ≤ 30%; area of lesion spots on the treated plant relative to that on an untreated plant [9]: ≤ 30%; area of lesion spots on the treated plant relative to that on an untreated plant [10]: ≤ 30%; area of lesion spots on the treated plant relative to that on an untreated plant [14]: ≤ 30%
Cc1cccc(-n2nnn(C)c2=O)c1COc1nn(C)c(-c2ccc(Cl)cc2)c1C [present compound 29, 1-(2-{[1,4-dimethyl-5-(4-chlorophenyl)-1H-pyrazol-3-yloxy]methyl}-3-methylphenyl)-4-methyl-1,4-dihydrotetrazol-5-one] | ≤ 30 |  |  |  | area of lesion spots on the treated plant relative to that on an untreated plant [2]: ≤ 30%; area of lesion spots on the treated plant relative to that on an untreated plant [4]: ≤ 30%
COc1cccc(-n2nnn(C)c2=O)c1COc1c(C)c(-c2ccc(Cl)cc2)nn1C [present compound 7] |  |  | ≤ 30 | ≤ 30 | area of lesion spots on the treated plant relative to that on an untreated plant [15]: ≤ 30%; area of lesion spots on the treated plant relative to that on an untreated plant [6]: ≤ 30%; area of lesion spots on the treated plant relative to that on an untreated plant [7]: ≤ 30%; area of lesion spots on the treated plant relative to that on an untreated plant [10]: ≤ 30%
Cc1cccc(-n2nnn(C)c2=O)c1COc1nc(-c2cccc(Cl)c2)co1 [present compound 19, 1-(2-{[4-(3-chlorophenyl)-1,3-oxazol-2-yloxy]methyl}-3-methylphenyl)-4-methyl-1,4-dihydrotetrazol-5-one] | ≤ 30 |  |  |  | 
COc1ccccc1-c1coc(OCc2c(C)cccc2-n2nnn(C)c2=O)n1 [present compound 16, 1-(2-{[4-(2-methoxyphenyl)-1,3-oxazol-2-yloxy]methyl}-3-methylphenyl)-4-methyl-1,4-dihydrotetrazol-5-one] | ≤ 30 |  |  |  | 
CCn1nc(-c2cccc(Cl)c2)cc1OCc1c(C)cccc1-n1nnn(C)c1=O [present compound 6] |  |  | ≤ 30 | ≤ 30 | area of lesion spots on the treated plant relative to that on an untreated plant [7]: ≤ 30%
Cc1cccc(-n2nnn(C)c2=O)c1COc1nc(-c2ccc(Cl)cc2)ns1 [present compound 12, 1-(2-{[3-(4-chlorophenyl)-1,2,4-thiadiazol-5-yl]oxymethyl}-3-methylphenyl)-4-methyl-1,4-dihydrotetrazol-5-one] | ≤ 30 | ≤ 30 |  |  | 
